Results as given in publication PMC4161973.
Results are given in words; binding and its absence hold for the method and conditions named. Binding seen in cells or lysates may run through a third protein. Some binding calls cover weakened binding; strength is not graded here. For part of these data: Where a sequence is shown, tags or fusion partners need not be part of it.

T1: GST-Kap123 (S. cerevisiae) (UniProt P40069)
T1 sequence: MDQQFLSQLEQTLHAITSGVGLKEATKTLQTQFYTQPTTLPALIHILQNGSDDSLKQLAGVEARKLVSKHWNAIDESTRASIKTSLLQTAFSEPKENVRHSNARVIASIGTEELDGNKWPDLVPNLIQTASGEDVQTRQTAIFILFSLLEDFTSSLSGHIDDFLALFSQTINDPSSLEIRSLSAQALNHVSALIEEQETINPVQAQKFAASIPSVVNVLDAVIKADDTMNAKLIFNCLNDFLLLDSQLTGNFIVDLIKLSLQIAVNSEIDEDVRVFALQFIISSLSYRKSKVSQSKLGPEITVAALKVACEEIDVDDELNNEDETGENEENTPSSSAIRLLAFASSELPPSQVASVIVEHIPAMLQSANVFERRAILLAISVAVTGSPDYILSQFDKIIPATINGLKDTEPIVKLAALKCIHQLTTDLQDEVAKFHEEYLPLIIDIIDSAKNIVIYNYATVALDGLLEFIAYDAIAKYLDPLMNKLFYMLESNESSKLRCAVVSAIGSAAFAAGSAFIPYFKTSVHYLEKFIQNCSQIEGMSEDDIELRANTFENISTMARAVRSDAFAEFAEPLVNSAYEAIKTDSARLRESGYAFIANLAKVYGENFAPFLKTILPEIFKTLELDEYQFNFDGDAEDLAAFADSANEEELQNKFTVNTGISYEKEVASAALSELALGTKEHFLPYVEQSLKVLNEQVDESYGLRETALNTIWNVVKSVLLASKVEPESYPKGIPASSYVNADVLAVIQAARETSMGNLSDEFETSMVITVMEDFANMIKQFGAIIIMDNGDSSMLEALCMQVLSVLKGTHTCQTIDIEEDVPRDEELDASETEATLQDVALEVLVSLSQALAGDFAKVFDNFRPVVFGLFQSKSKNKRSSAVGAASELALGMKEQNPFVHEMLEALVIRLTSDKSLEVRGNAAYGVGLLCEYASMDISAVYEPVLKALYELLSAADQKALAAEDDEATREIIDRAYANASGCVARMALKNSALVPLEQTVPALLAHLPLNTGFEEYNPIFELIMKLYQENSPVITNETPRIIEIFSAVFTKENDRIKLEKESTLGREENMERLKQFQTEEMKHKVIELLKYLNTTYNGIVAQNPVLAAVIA

T2: Enp1-TAP (S. cerevisiae), P38333
T2 chain: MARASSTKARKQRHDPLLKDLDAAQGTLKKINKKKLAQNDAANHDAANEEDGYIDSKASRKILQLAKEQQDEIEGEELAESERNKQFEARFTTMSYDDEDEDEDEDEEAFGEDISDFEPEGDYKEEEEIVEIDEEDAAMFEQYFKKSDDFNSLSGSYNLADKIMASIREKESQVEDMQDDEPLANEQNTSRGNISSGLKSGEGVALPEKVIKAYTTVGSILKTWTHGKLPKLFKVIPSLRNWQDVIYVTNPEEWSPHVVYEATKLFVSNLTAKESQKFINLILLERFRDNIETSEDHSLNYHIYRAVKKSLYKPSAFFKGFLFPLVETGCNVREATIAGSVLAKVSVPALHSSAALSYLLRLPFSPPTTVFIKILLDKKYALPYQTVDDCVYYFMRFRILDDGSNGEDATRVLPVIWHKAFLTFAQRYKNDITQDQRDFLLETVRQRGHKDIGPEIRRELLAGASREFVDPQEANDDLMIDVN

T3: Enp1-TAP (S. cerevisiae) (UniProt P38333)
T3 sequence: T2 chain

T4: GST-Pse1 (S. cerevisiae) (UniProt P32337)
T4 sequence: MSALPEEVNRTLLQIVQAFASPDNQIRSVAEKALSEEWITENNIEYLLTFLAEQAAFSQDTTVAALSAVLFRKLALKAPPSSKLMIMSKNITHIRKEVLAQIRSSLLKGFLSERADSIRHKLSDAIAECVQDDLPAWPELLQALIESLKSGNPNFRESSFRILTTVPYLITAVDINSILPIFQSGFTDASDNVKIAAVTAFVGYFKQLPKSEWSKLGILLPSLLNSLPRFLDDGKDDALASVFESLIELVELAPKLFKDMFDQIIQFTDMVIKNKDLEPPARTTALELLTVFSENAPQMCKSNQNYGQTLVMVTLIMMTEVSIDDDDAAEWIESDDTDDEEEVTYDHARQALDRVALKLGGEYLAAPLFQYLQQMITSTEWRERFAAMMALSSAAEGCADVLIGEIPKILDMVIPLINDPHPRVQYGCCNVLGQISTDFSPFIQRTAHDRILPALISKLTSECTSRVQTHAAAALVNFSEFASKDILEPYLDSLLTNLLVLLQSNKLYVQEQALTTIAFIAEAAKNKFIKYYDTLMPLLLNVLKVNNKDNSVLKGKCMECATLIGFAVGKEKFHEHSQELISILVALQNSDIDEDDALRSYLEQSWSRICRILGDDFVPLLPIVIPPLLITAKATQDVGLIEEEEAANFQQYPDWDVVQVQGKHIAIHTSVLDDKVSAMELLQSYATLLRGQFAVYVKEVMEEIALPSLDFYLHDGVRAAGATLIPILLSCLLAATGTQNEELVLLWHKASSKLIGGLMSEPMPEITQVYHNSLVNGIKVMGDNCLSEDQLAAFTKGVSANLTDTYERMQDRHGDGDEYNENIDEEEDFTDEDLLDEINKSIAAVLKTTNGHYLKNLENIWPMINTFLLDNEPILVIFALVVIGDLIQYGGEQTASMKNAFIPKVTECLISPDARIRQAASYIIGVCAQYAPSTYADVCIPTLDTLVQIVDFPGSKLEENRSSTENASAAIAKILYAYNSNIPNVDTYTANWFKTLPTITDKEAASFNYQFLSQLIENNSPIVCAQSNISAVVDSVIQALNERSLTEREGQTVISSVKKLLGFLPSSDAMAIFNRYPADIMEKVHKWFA

B1: uS3 (yeast Rps3), endogenous, P05750 1-240 (protein)
chain: MVALISKKRKLVADGVFYAELNEFFTRELAEEGYSGVEVRVTPTKTEVIIRATRTQDVLGENGRRINELTLLVQKRFKYAPGTIVLYAERVQDRGLSAVAQAESMKFKLLNGLAIRRAAYGVVRYVMESGAKGCEVVVSGKLRAARAKAMKFADGFLIHSGQPVNDFIDTATRHVLMRQGVLGIKVKIMRDPAKSRTGPKALPDAVTIIEPKEEEPILAPSVKDYRPAEETEAQAEPVEA
B2: Nob1, endogenous (enzyme, UniProt Q08444 1-459)
chain: MTENQTAHVRALILDATPLITQSYTHYQNYAQSFYTTPTVFQEIKDAQARKNLEIWQSLGTLKLVHPSENSIAKVSTFAKLTGDYSVLSANDLHILALTYELEIKLNNGDWRLRKKPGDALDASKADVGTDGKQKLTEDNKKEEDSESVPKKKNKRRGGKKQKAKREAREAREAENANLELESKAEEHVEEAGSKEQICNDENIKESSDLNEVFEDADDDGDWITPENLTEAIIKDSGEDTTGSLGVEASEEDRHVALNRPENQVALATGDFAVQNVALQMNLNLMNFMSGLKIKRIRNYMLRCHACFKIFPLPKDGKPKHFCASCGGQGTLLRCAVSVDSRTGNVTPHLKSNFQWNNRGNRYSVASPLSKNSQKRYGKKGHVHSKPQENVILREDQKEYEKVIKQEEWTRRHNEKILNNWIGGGSADNYISPFAITGLKQHNVRIGKGRYVNSSKRRS
B3: Slx9 (protein, UniProt P53251 1-210)
chain: MVAKKRNTLRSKVSARNSQNFGPDVANNGILDESYDIESDPRAFLHQPKETKKEKLLNRQNTFLSNLKGKSTLNDGIAANFDGISKSSIRRRKRKLREELKPRMQDLLTSLEQEKDLRGIIENSSKDMNNDDDIDMDSKIRFVDTKEMNLKKIEPGSVRIKKNQPNIRNQKGAKALAANETARFNQVLTNQDFQKNPFGALREVIKLQKQ
B4: eS8^FLAG (protein, UniProt P0CX39 1-200)
chain: MGISRDSRHKRSATGAKRAQFRKKRKFELGRQPANTKIGAKRIHSVRTRGGNKKYRALRIETGNFSWASEGISKKTRIAGVVYHPSNNELVRTNTLTKAAIVQIDATPFRQWFEAHYGQTLGKKKNVKEEETVAKSKNAERKWAARAASAKIESSVESQFSAGRLYACISSRPGQSGRCDGYILEGEELAFYLRRLTAKK
B5: uS7 (yeast Rps5), endogenous (protein, UniProt P26783 1-225)
chain: MSDTEAPVEVQEDFEVVEEFTPVVLATPIPEEVQQAQTEIKLFNKWSFEEVEVKDASLVDYVQVRQPIFVAHTAGRYANKRFRKAQCPIIERLTNSLMMNGRNNGKKLKAVRIIKHTLDIINVLTDQNPIQVVVDAITNTGPREDTTRVGGGGAARRQAVDVSPLRRVNQAIALLTIGAREAAFRNIKTIAETLAEELINAAKGSSTSYAIKKKDELERVAKSNR

What was measured:
[1] = biological target: T1, GST-Kap123 (S. cerevisiae); test: pull-down; dissociation assay, 1 hr: GST-importin:r-protein^FLAG complexes pre-formed on Glutathione Sepharose (r-protein from E. coli lysate) incubated with buffer alone, 1.5 µM RanGTP, 1.5 µM Tsr2 or His6-Tsr2, or 3 nM 3'-end of 18S rRNA for 1 hr at 4°C; only the target purified
[2] = biological target: T2, Enp1-TAP (S. cerevisiae), P38333; test: co-IP; tandem affinity purification of pre-ribosomal particles by TAP-tagged baits from yeast (WT and, for Enp1-TAP, Tsr2-depleted cells); Calmodulin-eluates analysed by Western; details: remark: other sources report otherwise
Enp1-TAP (S. cerevisiae) = biological target: T3, Enp1-TAP (S. cerevisiae); test: as above
GST-Pse1 (S. cerevisiae) = biological target: T4, GST-Pse1 (S. cerevisiae); test: pull-down; Pse1:Slx9 complexes immobilised on Glutathione Sepharose, incubated with buffer alone, 1.5 µM RanGTP, 1.5 µM Tsr2 or 3 nM 3'-end of 18S rRNA for 1 hr at 4°C

| binding [1] | binding (Enp1-TAP (S. cerevisiae)) | other results | Molecule |
| --- | --- | --- | --- |
| binds | – | – | eS31^FLAG (from UniProt P05759 77-152) |
| – | – | binding [2]: binds | B1 |
| – | binds | – | B2 |
| – | – | binding (GST-Pse1 (S. cerevisiae)): binds | B3 |
| binds | – | – | B4 |
| – | binds | – | B5 |
